Test results taken from the supplement of paper PMC10849652.
The other results are listed elsewhere or left out.

Protein sequences, listed by entry. Tags and fused reporters are not part of them. Lines headed by an entry give the natural chain unless they say otherwise; changes in a name come on top.
UniProt P17081: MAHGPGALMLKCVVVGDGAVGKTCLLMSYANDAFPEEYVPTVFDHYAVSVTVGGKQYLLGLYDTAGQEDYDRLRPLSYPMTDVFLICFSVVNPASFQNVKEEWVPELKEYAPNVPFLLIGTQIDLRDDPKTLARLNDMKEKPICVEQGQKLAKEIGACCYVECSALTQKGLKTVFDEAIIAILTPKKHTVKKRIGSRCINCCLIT
UniProt Q9BXT8: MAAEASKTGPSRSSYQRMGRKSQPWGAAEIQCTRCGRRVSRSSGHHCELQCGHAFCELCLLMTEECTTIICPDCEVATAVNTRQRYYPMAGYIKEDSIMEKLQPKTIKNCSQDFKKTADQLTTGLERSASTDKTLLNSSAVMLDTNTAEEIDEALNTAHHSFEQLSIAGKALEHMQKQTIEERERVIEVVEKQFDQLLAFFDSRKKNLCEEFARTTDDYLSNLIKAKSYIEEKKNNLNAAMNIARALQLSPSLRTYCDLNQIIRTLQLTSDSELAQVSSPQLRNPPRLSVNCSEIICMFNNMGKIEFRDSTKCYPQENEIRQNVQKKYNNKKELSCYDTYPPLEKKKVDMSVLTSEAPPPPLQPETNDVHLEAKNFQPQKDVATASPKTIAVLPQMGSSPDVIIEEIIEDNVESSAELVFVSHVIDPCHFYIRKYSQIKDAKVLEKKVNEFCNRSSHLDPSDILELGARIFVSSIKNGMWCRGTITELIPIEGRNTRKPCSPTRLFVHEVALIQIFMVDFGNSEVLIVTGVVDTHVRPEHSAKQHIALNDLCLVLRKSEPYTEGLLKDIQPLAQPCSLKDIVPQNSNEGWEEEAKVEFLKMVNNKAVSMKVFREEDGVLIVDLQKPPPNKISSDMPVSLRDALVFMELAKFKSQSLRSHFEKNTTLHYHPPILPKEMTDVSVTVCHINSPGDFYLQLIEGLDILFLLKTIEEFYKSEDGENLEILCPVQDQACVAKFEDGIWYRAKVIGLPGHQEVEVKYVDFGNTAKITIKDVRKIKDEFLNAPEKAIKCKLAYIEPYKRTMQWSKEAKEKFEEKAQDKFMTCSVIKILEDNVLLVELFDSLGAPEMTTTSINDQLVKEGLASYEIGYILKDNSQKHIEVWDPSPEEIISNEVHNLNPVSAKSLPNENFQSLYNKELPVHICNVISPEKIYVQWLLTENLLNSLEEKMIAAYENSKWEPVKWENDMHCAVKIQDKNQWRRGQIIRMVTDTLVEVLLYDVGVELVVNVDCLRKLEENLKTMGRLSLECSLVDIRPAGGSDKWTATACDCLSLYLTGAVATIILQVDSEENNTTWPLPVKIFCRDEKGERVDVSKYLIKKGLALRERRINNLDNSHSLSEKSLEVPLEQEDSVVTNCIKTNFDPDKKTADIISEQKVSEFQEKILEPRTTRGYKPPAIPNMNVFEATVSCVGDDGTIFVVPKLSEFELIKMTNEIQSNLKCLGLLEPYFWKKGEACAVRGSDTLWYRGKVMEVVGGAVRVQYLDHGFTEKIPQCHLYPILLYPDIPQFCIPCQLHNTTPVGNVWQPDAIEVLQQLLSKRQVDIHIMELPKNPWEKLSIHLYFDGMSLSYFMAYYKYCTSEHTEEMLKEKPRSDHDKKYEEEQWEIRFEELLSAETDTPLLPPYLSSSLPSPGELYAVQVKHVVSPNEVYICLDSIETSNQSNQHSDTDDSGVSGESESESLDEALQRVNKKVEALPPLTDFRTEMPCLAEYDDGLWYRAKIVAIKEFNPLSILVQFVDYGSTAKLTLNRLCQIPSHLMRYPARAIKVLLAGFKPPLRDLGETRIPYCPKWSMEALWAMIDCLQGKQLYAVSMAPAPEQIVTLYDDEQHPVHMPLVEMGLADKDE
UniProt Q9H4P4: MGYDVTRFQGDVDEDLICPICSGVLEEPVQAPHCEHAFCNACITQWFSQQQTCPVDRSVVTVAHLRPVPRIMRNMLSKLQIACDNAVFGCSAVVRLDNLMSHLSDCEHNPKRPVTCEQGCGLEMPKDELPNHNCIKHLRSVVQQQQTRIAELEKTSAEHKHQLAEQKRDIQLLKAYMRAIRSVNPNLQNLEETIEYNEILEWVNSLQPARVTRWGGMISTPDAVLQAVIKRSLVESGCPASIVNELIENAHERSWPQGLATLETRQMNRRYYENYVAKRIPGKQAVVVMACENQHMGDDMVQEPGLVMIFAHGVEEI
UniProt Q9H920: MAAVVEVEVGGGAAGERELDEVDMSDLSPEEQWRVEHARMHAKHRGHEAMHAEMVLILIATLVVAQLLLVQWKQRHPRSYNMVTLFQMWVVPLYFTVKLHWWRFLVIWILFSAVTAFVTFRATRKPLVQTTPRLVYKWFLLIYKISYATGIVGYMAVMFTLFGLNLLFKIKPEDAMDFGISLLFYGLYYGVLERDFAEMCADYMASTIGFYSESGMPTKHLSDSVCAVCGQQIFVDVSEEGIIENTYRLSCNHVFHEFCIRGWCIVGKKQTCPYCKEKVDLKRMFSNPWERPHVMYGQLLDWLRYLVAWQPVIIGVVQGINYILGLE
UniProt Q969X0: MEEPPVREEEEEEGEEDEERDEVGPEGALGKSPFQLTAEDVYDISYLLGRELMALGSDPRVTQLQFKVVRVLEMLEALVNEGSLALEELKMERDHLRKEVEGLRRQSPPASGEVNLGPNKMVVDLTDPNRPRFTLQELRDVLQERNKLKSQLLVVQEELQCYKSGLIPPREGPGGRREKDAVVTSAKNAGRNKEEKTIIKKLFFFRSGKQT
UniProt Q9Y225: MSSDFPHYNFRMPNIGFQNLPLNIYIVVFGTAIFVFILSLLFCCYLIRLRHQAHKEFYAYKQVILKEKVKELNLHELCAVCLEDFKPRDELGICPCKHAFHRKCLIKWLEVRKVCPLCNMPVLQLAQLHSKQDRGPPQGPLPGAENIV
UniProt Q9GZN7, whole entry, looked up: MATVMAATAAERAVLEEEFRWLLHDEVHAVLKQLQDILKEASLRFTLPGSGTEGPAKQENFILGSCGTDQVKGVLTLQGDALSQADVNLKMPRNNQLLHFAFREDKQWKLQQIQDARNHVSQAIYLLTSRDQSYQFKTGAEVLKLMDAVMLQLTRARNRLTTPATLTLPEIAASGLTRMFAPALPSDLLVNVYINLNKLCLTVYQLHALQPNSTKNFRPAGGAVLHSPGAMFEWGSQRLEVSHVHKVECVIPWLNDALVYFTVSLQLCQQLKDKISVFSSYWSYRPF
UniProt Q8N5U6: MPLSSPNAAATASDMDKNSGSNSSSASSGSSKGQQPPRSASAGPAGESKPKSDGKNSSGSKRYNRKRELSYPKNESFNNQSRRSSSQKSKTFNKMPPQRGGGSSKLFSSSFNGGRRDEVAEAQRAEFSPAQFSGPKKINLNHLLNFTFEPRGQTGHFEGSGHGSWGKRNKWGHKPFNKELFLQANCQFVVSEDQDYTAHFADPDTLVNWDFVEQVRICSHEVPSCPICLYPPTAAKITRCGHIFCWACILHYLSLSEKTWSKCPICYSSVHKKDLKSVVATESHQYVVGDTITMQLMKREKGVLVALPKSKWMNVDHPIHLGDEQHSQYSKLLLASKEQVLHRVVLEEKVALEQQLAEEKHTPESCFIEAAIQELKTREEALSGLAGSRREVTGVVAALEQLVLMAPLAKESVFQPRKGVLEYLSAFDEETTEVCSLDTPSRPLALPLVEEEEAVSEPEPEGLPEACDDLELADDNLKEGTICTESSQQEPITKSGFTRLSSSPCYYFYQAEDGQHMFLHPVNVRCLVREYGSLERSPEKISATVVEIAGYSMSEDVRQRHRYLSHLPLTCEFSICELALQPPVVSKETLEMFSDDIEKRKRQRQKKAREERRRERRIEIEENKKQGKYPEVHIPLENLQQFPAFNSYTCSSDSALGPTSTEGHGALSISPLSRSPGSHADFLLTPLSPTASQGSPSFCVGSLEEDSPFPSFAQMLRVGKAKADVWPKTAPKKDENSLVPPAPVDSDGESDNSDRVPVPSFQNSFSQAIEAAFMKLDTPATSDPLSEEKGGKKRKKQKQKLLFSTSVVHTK
UniProt Q86XS8: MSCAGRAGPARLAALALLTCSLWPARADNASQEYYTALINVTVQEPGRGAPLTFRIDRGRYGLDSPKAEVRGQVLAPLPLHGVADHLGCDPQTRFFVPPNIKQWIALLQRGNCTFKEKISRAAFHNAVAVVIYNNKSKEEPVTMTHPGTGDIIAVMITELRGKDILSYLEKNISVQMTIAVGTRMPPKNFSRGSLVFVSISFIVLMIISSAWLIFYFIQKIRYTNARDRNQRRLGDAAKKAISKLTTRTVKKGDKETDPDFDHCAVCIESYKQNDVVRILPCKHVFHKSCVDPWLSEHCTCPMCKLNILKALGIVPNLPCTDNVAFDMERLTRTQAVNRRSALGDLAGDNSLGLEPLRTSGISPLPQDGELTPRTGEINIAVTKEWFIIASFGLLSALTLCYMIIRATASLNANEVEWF
UniProt Q99496: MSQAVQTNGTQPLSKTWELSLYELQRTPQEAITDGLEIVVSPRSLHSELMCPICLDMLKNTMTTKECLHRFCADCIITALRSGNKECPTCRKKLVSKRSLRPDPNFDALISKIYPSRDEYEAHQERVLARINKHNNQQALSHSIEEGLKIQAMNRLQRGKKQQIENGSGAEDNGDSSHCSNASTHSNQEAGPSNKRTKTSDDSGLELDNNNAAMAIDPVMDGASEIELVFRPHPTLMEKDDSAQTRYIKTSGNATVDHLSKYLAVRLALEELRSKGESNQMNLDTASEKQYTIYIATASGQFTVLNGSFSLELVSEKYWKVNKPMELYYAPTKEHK
UniProt O76064: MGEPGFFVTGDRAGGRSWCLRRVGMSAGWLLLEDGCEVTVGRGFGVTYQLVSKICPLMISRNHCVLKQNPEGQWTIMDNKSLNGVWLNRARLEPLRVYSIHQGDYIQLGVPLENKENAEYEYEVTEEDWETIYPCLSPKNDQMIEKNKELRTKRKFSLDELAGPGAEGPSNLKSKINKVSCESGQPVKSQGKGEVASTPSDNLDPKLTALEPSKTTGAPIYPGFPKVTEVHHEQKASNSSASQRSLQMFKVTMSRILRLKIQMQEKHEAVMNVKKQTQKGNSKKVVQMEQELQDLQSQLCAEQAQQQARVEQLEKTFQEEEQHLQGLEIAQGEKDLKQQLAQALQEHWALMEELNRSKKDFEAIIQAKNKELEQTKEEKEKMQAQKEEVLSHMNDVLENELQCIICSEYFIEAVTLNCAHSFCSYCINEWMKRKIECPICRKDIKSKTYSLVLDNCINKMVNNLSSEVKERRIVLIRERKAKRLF
UniProt Q9Y4L5, whole entry, looked up: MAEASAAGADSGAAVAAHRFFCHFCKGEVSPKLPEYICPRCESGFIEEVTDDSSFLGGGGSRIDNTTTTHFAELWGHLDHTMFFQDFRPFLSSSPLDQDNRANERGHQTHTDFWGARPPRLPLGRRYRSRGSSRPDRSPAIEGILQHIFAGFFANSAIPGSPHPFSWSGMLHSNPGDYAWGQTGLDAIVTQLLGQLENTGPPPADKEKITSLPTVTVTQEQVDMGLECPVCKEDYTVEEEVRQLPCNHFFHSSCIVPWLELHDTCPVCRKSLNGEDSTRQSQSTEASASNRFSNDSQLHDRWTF
UniProt Q96E14: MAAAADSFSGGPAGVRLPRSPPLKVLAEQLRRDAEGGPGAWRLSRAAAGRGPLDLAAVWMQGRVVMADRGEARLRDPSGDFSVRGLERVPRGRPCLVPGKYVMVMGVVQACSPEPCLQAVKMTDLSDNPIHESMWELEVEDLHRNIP
UniProt Q9NVW2: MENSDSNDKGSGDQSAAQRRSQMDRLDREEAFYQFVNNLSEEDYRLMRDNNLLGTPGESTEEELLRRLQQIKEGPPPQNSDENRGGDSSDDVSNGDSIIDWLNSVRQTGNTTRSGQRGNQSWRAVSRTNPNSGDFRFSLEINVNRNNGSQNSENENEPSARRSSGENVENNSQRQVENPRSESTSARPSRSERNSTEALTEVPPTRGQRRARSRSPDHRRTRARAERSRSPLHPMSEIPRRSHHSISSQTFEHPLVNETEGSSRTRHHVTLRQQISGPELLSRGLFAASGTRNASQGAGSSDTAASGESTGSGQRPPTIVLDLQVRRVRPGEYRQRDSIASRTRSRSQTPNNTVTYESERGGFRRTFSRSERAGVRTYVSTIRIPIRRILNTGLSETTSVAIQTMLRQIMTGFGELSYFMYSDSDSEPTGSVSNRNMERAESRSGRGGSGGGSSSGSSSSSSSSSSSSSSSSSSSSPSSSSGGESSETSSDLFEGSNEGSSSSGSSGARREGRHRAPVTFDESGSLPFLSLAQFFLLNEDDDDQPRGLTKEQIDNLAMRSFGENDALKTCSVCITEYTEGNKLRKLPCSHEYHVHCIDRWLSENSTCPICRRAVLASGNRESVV
UniProt Q96GF1: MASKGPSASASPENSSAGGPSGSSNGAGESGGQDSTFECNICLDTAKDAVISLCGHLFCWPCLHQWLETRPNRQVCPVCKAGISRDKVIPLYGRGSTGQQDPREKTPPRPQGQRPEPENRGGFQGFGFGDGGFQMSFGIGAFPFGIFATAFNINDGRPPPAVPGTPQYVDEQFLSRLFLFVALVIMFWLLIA

Key:
Experiment in all cases: log2 fold change, soluble protein after heating vs DMSO (PISA); higher = thermal stabilisation; K562 lysate, 10 uM; active = over 0.2 and 3.5 SD of the protein, either way, in both replicates (recomputed)
vemurafenib = compound: CCCS(=O)(=O)Nc1ccc(F)c(C(=O)c2c[nH]c3ncc(-c4ccc(Cl)cc4)cc23)c1F [vemurafenib]
Summary of the method: (§1)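 Values give the log-two fold change in thermal stability against solvent controls, from duplicates. Crude K562 extract at 1 mg/mL protein, made by dounce homogenisation in PBS pH 7.4 with 1 mM MgCl2, was treated with 10 μM compound for 30 min. After 3 min heating across 48°C-58°C, aliquots were pooled, adjusted to 0.5% NP-40 at 4°C and centrifuged at 21,000xg for 90 min. The supernatant was measured by TMTpro 16plex LC-MS/MS with channel sums equalised.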

[1] = compound: CC[C@@H]1C(=O)N(C)c2cnc(Nc3ccc(C(=O)NC4CCN(C)CC4)cc3OC)nc2N1C1CCCC1
Summary of the method: as §1

[2] = compound: CCCS(=O)(=O)Nc1ccc(F)c(C(=O)c2c[nH]c3ncc(Cl)cc23)c1F
Summary of the method: as §1

barasertib = compound: CCN(CCCOc1ccc2c(Nc3cc(CC(=O)Nc4cccc(F)c4)[nH]n3)ncnc2c1)CCOP(=O)(O)O [barasertib]
Summary of the method: as §1

volasertib = compound: CC[C@@H]1C(=O)N(C)c2cnc(Nc3ccc(C(=O)N[C@H]4CC[C@H](N5CCN(CC6CC6)CC5)CC4)cc3OC)nc2N1C(C)C [volasertib]
Summary of the method: as §1

[3] = compound: CCn1c(C(=O)N(C2CC2)C2CC2)cc2c3c(ncn3C)c(Nc3cc(C)n(C)n3)nc21
Summary of the method: as §1

[4] = compound: CCn1cc(-c2ccnc3[nH]c(-c4cccc(CN(C)C)c4)cc23)c(-c2ccc(NC(=O)N(C)C)cc2)n1
Summary of the method: as §1

[5] = compound: CN1CCC(CNc2ccc3ncc(-c4cccc(OC(F)(F)F)c4)n3n2)CC1
Summary of the method: as §1

saracatinib = compound: CN1CCN(CCOc2cc(OC3CCOCC3)c3c(Nc4c(Cl)ccc5c4OCO5)ncnc3c2)CC1 [saracatinib]
Summary of the method: as §1

sotrastaurin = compound: CN1CCN(c2nc(C3=C(c4c[nH]c5ccccc45)C(=O)NC3=O)c3ccccc3n2)CC1 [sotrastaurin]
Summary of the method: as §1

| Target | log2 fold change (vemurafenib) | log2 fold change [1] | log2 fold change [2] | log2 fold change (barasertib) | log2 fold change (volasertib) | log2 fold change [3] | log2 fold change [4] | log2 fold change [5] | log2 fold change (saracatinib) | log2 fold change (sotrastaurin) |
| --- | --- | --- | --- | --- | --- | --- | --- | --- | --- | --- |
| RHOQ (UniProt P17081) | inactive: 0.054 | inactive: -0.077 | – | – | – | – | – | – | – | – |
| RNF17 (UniProt Q9BXT8) | – | inactive: 0.099 | inactive: 0.022 | inactive: 0.133 | inactive: 0.066 | inactive: -0.035 | inactive: 0.113 | inactive: -0.421 | inactive: 0.257 | inactive: 0.046 |
| RNF41 (UniProt Q9H4P4) | – | – | – | – | – | inactive: 0.109 | inactive: 0.156 | inactive: -0.171 | inactive: -0.076 | inactive: 0.045 |
| RNF121 (UniProt Q9H920) | – | – | inactive: -0.2 | inactive: -0.028 | inactive: -0.067 | inactive: 0.072 | inactive: -0.155 | inactive: 0.033 | inactive: 0.004 | inactive: -0.019 |
| RHOBTB3 (UniProt O94955) | – | inactive: -0.007 | – | – | – | – | – | – | – | – |
| RNPC3 (UniProt Q96LT9) | – | – | inactive: -0.02 | – | inactive: 0.019 | inactive: -0.119 | inactive: -0.009 | inactive: -0.032 | inactive: -0.022 | inactive: -0.074 |
| RMND5B (UniProt Q96G75) | inactive: 0.129 | – | – | – | – | – | inactive: 0.004 | inactive: 0.053 | – | – |
| RILPL2 (UniProt Q969X0) | – | – | inactive: 0.027 | inactive: -0.069 | inactive: 0.083 | inactive: -0.02 | inactive: -0.043 | inactive: 0.058 | – | inactive: -0.061 |
| RNF24 isoform 2 (UniProt Q9Y225) | – | – | – | inactive: 0.122 | – | – | inactive: 0.033 | inactive: -0.084 | – | inactive: 0.025 |
| RPF1 (UniProt Q9H9Y2) | – | – | inactive: 0.022 | inactive: 0.215 | inactive: -0.134 | inactive: -0.223 | – | – | – | inactive: -0.113 |
| ROGDI (UniProt Q9GZN7) | – | – | inactive: -0.032 | inactive: 0.17 | inactive: 0.017 | inactive: 0 | inactive: -0.076 | inactive: 0.05 | inactive: 0.03 | inactive: -0.1 |
| RNF10 isoform 2 (UniProt Q8N5U6) | – | inactive: 0.336 | inactive: 0.097 | – | inactive: 0.156 | – | – | – | inactive: 0.04 | inactive: 0.018 |
| RIMKLB (UniProt Q9ULI2) | – | – | – | – | – | inactive: -0.076 | – | – | – | – |
| RINL (UniProt Q6ZS11) | – | inactive: -0.239 | inactive: -0.014 | inactive: -0.114 | inactive: 0.003 | inactive: 0.045 | inactive: -0.038 | inactive: -0.104 | inactive: 0.076 | – |
| RNF130 (UniProt Q86XS8) | inactive: -0.102 | – | – | inactive: 0.112 | – | – | inactive: -0.221 | inactive: -0.107 | inactive: -0.033 | inactive: -0.032 |
| RNF2 (UniProt Q99496) | inactive: -0.03 | inactive: -0.03 | – | – | – | inactive: 0.061 | active: 0.557 | active: -0.399 | inactive: -0.004 | inactive: -0.002 |
| RNF167 (UniProt Q9H6Y7) | – | – | inactive: 0.043 | inactive: 0.003 | inactive: 0.036 | – | inactive: -0.007 | inactive: 0.049 | inactive: 0.06 | inactive: -0.021 |
| RPL10, A0A087WV22 | – | – | – | inactive: -0.45 | – | inactive: 0.065 | – | – | inactive: 0.744 | inactive: 0.218 |
| RNFT1 (UniProt Q5M7Z0) | – | inactive: -0.183 | – | – | – | inactive: -0.067 | inactive: -0.308 | inactive: 0.183 | inactive: -0.059 | – |

Copied from the listing (2 entries):

| Target | log2 fold change (vemurafenib) | log2 fold change [1] | log2 fold change [2] | log2 fold change (barasertib) | log2 fold change (volasertib) | log2 fold change [3] | log2 fold change [4] | log2 fold change [5] | log2 fold change (saracatinib) | log2 fold change (sotrastaurin) |
| --- | --- | --- | --- | --- | --- | --- | --- | --- | --- | --- |
| RINL (UniProt Q6ZS11) | – | inactive: -0.239 | inactive: -0.014 | inactive: -0.114 | inactive: 0.003 | inactive: 0.045 | inactive: -0.038 | inactive: -0.104 | inactive: 0.076 | – |
| RNF130 (UniProt Q86XS8) | inactive: -0.102 | – | – | inactive: 0.112 | – | – | inactive: -0.221 | inactive: -0.107 | inactive: -0.033 | inactive: -0.032 |

Additional entries

| Target | log2 fold change (vemurafenib) | log2 fold change [1] | log2 fold change [2] | log2 fold change (barasertib) | log2 fold change (volasertib) | log2 fold change [3] | log2 fold change [4] | log2 fold change [5] | log2 fold change (saracatinib) | log2 fold change (sotrastaurin) |
| --- | --- | --- | --- | --- | --- | --- | --- | --- | --- | --- |
| RNF8 (UniProt O76064) | – | inactive: -0.103 | – | inactive: 0.063 | – | inactive: 0.028 | inactive: -0.184 | inactive: 0.079 | inactive: 0.073 | inactive: 0.015 |
| RNF115 (UniProt Q9Y4L5) | inactive: -0.09 | – | – | – | – | – | inactive: 0.069 | inactive: 0.149 | – | inactive: -0.015 |
| RPL32 (UniProt D3YTI8) | – | – | inactive: -0.058 | – | inactive: -0.004 | – | – | – | inactive: 0.002 | – |
| RNF169 (UniProt Q8NCN4) | – | – | – | inactive: -0.014 | – | inactive: 0.143 | – | – | inactive: 0.19 | inactive: -0.079 |
| RNASEH2B, A0A1B0GUE7 | – | – | inactive: -0.061 | – | inactive: -0.064 | – | – | – | – | – |
| RMI2 (UniProt Q96E14) | inactive: 0.239 | inactive: -0.109 | – | – | – | inactive: -0.007 | – | – | inactive: -0.008 | inactive: -0.01 |
| RNF5 (UniProt Q99942) | – | inactive: 0.009 | – | inactive: 0.159 | – | inactive: 0.081 | inactive: -0.005 | inactive: -0.039 | inactive: -0.02 | inactive: -0.125 |
| RPGR (UniProt Q92834) | – | – | – | inactive: 0.036 | – | – | – | – | – | inactive: -0.087 |
| RLF (UniProt Q13129) | – | – | inactive: -0.1 | – | inactive: 0.162 | – | inactive: -0.121 | inactive: -0.019 | inactive: 0.035 | inactive: -0.044 |
| RPL15, A0A2R8Y738 | – | – | inactive: -0.062 | inactive: -0.222 | inactive: -0.12 | – | – | – | – | – |
| RPL22L1 (UniProt Q6P5R6) | – | inactive: 0.477 | – | inactive: -0.056 | – | inactive: 0.139 | – | – | inactive: -1.36 | – |
| RPAIN isoform 8 (UniProt Q86UA6) | inactive: -0.114 | inactive: -0.029 | – | inactive: 0.042 | – | – | inactive: 0.405 | inactive: 0.053 | – | – |
| ROBO2 isoform 3 (UniProt Q9HCK4) | – | – | inactive: 0.071 | – | inactive: 0.045 | active: 0.523 | – | – | – | inactive: -0.001 |
| RHPN2 (UniProt Q8IUC4) | – | inactive: 0.03 | inactive: 0 | – | inactive: -0.163 | inactive: 0.078 | – | – | – | inactive: -0.095 |
| RNF138 (UniProt Q8WVD3) | inactive: 0.092 | inactive: 0.078 | – | inactive: -0.007 | – | inactive: 0.014 | inactive: -0.02 | inactive: 0.007 | inactive: 0.032 | inactive: 0.068 |
| RNF4 (UniProt P78317) | inactive: 0.012 | inactive: -0.1 | – | inactive: -0.196 | – | inactive: 0.211 | inactive: 0.083 | inactive: 0.008 | – | inactive: -0.184 |
| RLIM (UniProt Q9NVW2) | – | – | – | inactive: 0.065 | – | – | – | – | – | inactive: -0.055 |
| RNF185 (UniProt Q96GF1) | – | – | inactive: -0.045 | inactive: 0.036 | inactive: 0.037 | – | inactive: -0.021 | inactive: -0.009 | – | – |
